{"source": "paper PMC4535883", "about": "“A Single-Strand Annealing Protein Clamps DNA to Detect and Secure Homology”", "biological_target": "T1, Redβ (single-strand annealing protein) (bacteriophage lambda) (UniProt P03698)", "T1 sequence (looked up, limits assumed)": "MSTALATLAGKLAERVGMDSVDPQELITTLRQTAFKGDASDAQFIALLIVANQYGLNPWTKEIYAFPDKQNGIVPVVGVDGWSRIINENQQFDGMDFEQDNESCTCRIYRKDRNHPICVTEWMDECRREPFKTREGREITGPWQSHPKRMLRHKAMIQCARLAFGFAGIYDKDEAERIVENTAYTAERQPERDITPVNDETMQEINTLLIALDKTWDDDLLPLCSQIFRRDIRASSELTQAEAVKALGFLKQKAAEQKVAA", "assay": "EMSA", "settings": "1 nM ssDNA, broad smeared shift at 158 nM Redβ and above; optical tweezers at 29.2 °C; recombinant protein; label: Atto 565 (5'); single-stranded DNA", "note": "For at least one entry, the source does not settle the construct or the ends of the probe. Weaker means in comparison with the reference protein, sequence or condition of that experiment. Where a protein sequence is shown, tags need not be part of it."}
{"sequence": "CTTCCACTTTCATCGTCTTTCAGTTCTCTT [ssDNA PAGE 30 b]", "values": [{"measurement": "binding result", "value": "binds more weakly"}]}
